These results are taken from PMC7819943, “Rice protein-binding microarrays: a tool to detect cis-acting elements near promoter regions in rice”.

The chains behind the UniProt entries cited, without tags or fusion partners.
UniProt Q0JBA9, entry or part of it: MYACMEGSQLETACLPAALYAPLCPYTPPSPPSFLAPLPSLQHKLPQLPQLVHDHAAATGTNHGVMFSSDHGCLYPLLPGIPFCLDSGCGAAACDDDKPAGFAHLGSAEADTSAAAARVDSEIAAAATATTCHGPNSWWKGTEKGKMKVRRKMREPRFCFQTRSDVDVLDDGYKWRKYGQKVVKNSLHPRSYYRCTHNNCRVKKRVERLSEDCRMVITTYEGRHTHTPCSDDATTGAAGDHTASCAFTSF

This is one part of the list.

In this assay the target is OsWRKY34 (Oryza sativa, UniProt Q0JBA9 1-250). In words: protein-binding microarray (RPBM); PBS, 2% BSA, 51.3 ng/ul salmon testes DNA, 50 uM zinc acetate, 200 nM TF, 25 C, 1 h; high values mean tight binding. The following applies: protein: recombinant; tags: N-terminal polyhistidine and DsRed monomer fusion (pET32a); label: CyDye5-dUTP incorporated in the synthesized complementary strand; 3' TTTTT single-stranded linker to array surface; dsDNA, one strand shown. A digest of the protocol:
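Transcription factors, each fused N-terminally to a polyhistidine tag and DsRed, were expressed in E. coli BL21-CodonPlus and purified on Ni–NTA. A custom Agilent array was made double-stranded by primer extension with Cy5-dUTP and blocked with 2% BSA. It was incubated with 200 nM protein in PBS, 2% BSA, salmon testes DNA and 50 µM zinc acetate at 25 °C for 1 h, then washed. The binding signal is per-feature fluorescence intensity (arbitrary units) read on an Axon 4000B scanner.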
For “CCTTTTGCTTGTTCAGTTTTTTGTGCCTCATCCTTCTCTTCGGAGTCACCTAGTGCAG”, the binding signal was 10000 fluorescence intensity (a.u.).

For the sequence “GGTGCGTGGGTGGTGGTCTTTTTCTTTTTCCTAGTTACGACGGAGTCACCTAGTGCAG”, the binding signal is 29400 fluorescence intensity (a.u.).

On to “GCTGCTGAAATGGCATTTTCTTTGGTTATTCTACTTCCAACGGAGTCACCTAGTGCAG”, for which the binding signal was 9030 fluorescence intensity (a.u.).

Regarding “TCCACTTCATCACCGGCCACTCTGCCTAGAGCATTATCATCGGAGTCACCTAGTGCAG”, the binding signal was 11000 fluorescence intensity (a.u.).

In the case of “TATCTCATTCATCTGATTCCTGCGCTTTTCCTATAGTCCACGGAGTCACCTAGTGCAG”, the binding signal is 8060 fluorescence intensity (a.u.).

For “CACTTTCCCAGCCAAAAACTCTCGTACTCCAGCTCGTATACGGAGTCACCTAGTGCAG”, the binding signal is 9380 fluorescence intensity (a.u.).

In the case of “GCGGTATTGAAAGATCGAATGTCTGGTTTTCGGGTTGGGGCGGAGTCACCTAGTGCAG”, the binding signal was 10100 fluorescence intensity (a.u.).

In the case of “AGATTGTGAACTAACATAAAATTGCTTTTTGGTCAAGCCTCGGAGTCACCTAGTGCAG”, the binding signal is 8170 fluorescence intensity (a.u.).

On to “TGTGTTTTTCAAATTTCTACTCTTGGGTGGGGAAAAGGAGCGGAGTCACCTAGTGCAG”, for which the binding signal was 9200 fluorescence intensity (a.u.).

Take “CAACTCATCCATCCCCACCTTGTCCACGTCGTCGCCTATACGGAGTCACCTAGTGCAG”: the binding signal was 8400 fluorescence intensity (a.u.).

“CTCTCCATCCACTCTGCTGCAGCAGCCAAGAAGAAATTTCCGGAGTCACCTAGTGCAG”: the binding signal was 8200 fluorescence intensity (a.u.).

For “CCGCCAATCACCCCAACCATCCATTTATGTCGTCGCGCCCCGGAGTCACCTAGTGCAG”, the binding signal was 11800 fluorescence intensity (a.u.).

With “CTCGCTCTCTCTCCCGCAGCGTCAGCCGCTTTGCCGCACTCGGAGTCACCTAGTGCAG”, the binding signal was 8730 fluorescence intensity (a.u.).

Turning to “ATACTATCACTTCAACCATTGGTAGTGCAATAATTTCTTTCGGAGTCACCTAGTGCAG”, the binding signal is 8760 fluorescence intensity (a.u.).

“GAGAGAATACATTAAGCTTATACATCCCACTATTTGTCGACGGAGTCACCTAGTGCAG”: the binding signal was 8170 fluorescence intensity (a.u.).

For the sequence “TCCTGACCACTGCGAACTGGCGCGCTGATTTGACTTCCGGCGGAGTCACCTAGTGCAG”, the binding signal is 8650 fluorescence intensity (a.u.).

Take “ATTAGGATGATCCTACCTGTCCGTACACCATGTTTTGTCCCGGAGTCACCTAGTGCAG”: the binding signal is 10500 fluorescence intensity (a.u.).

Regarding “GGAGGGGTGGTTGGTGCCGAGGGAGGTGTGGTCGGTGCCGCGGAGTCACCTAGTGCAG”, the binding signal was 9980 fluorescence intensity (a.u.).

For the sequence “CCAACCTCCTCAACACATCCAGGATTCTTACATATCATTCCGGAGTCACCTAGTGCAG”, the binding signal was 8540 fluorescence intensity (a.u.).

As for “CGCTCTCTCGCCTGCCGCCGCGCGCTCGCCGGCCTACCCGCGGAGTCACCTAGTGCAG”, the binding signal was 8440 fluorescence intensity (a.u.).

On to “TCCATTTTGTCCATACAATTTTGTTGCTACTACAGCACACCGGAGTCACCTAGTGCAG”, for which the binding signal is 8430 fluorescence intensity (a.u.).

For the sequence “CATGAGGTGGGCTTTTGTGATTTTCCAAAGAATTAATCTTCGGAGTCACCTAGTGCAG”, the binding signal is 8780 fluorescence intensity (a.u.).

For “CACATCTTCCTTTTTCTCAAGCTACATCTTCCTTTTTGTCCGGAGTCACCTAGTGCAG”, the binding signal was 9600 fluorescence intensity (a.u.).

Regarding “GATATGAAGCATTTAATCTTGCCCTTGCATATTTACTAGACGGAGTCACCTAGTGCAG”, the binding signal was 8120 fluorescence intensity (a.u.).

Turning to “CCGGGGACACCGCCCTCGTCGTCGTCGCCTCCGGCGTCAGCGGAGTCACCTAGTGCAG”, the binding signal is 8560 fluorescence intensity (a.u.).

On to “TATTCTTTCTATATGTCTCATCAAAGATGTCCTTTTCCACCGGAGTCACCTAGTGCAG”, for which the binding signal is 8880 fluorescence intensity (a.u.).

Consider “TTTATCCAAACCCTTGCGGCTGCGTGATCACCTCCTTCATCGGAGTCACCTAGTGCAG”, for which the binding signal was 8530 fluorescence intensity (a.u.).

Turning to “CTCTCAAGCTACATACTCCCAGTACTGCTTCATCTAGCTCCGGAGTCACCTAGTGCAG”, the binding signal was 9380 fluorescence intensity (a.u.).

Take “CCCAACTGCAGTCTACTCCTATTCTTTTTCAGTTTGGACTCGGAGTCACCTAGTGCAG”: the binding signal was 8740 fluorescence intensity (a.u.).

As for “ACACCTATTGTTTTCTAATTGGCTTACTAGCCACTACAAACGGAGTCACCTAGTGCAG”, the binding signal was 9280 fluorescence intensity (a.u.).

With “GCCGTGTCCTTTTCGTGTGCCTCACATAATGTGTGTGTAACGGAGTCACCTAGTGCAG”, the binding signal is 9220 fluorescence intensity (a.u.).

For the sequence “CCGTTTCCCGCCGCTGTCTCCCGCCGGAGCCGCCCCTGCTCGGAGTCACCTAGTGCAG”, the binding signal is 9030 fluorescence intensity (a.u.).

In the case of “AGAGGGAAAAGATGGAGGGGTATTTTTCATGCAGATCTTTCGGAGTCACCTAGTGCAG”, the binding signal was 8210 fluorescence intensity (a.u.).

Turning to “CGCCGTCGCCCATTTCGGCATGCGTTATCACCGCCGCCACCGGAGTCACCTAGTGCAG”, the binding signal was 13000 fluorescence intensity (a.u.).

For “GGTTAAGGATTTTTTTAGTGGGCTGGGCTTTTTGGGCTTTCGGAGTCACCTAGTGCAG”, the binding signal was 11400 fluorescence intensity (a.u.).

For the sequence “GGTGGAAGTCTTACATTTGCTGAAATTGTCTTGGGGAGAACGGAGTCACCTAGTGCAG”, the binding signal is 10900 fluorescence intensity (a.u.).

For the sequence “TCTGTTCTTGGCGTTGAGATACATAGAGGCTTGGGGTGGGCGGAGTCACCTAGTGCAG”, the binding signal was 9350 fluorescence intensity (a.u.).

As to “ACGAATATAGGGAGGGGCATCACAGCTTTATTGCTTTAACCGGAGTCACCTAGTGCAG”, the binding signal was 12500 fluorescence intensity (a.u.).

Turning to “GTGGCGGTTTAGGAGCGTTTGTAGGAAGTTTAATTGACTTCGGAGTCACCTAGTGCAG”, the binding signal was 8100 fluorescence intensity (a.u.).

Turning to “AACACTGCCCAATTGCCCATGCTCCAGACTTCTTTCTACTCGGAGTCACCTAGTGCAG”, the binding signal was 11900 fluorescence intensity (a.u.).

Regarding “GCGCCCACGAACCTTGTCTTCAAGCAATCCCACACTTCCTCGGAGTCACCTAGTGCAG”, the binding signal was 9490 fluorescence intensity (a.u.).

With “GTTGAACAGATATGTATAGTATTCCCTAACCGGGCTATTTCGGAGTCACCTAGTGCAG”, the binding signal is 8460 fluorescence intensity (a.u.).
